Here are results for 65 compounds from PubChem BioAssay AID493014 (National Center for Advancing Translational Sciences (NCATS), 2011).

Some of the results follow. Shown are side measurements of this screen, not its main read-out; they come without a call. The list favours compounds with an active or inconclusive main result. The note in brackets gives the kind of curve behind each potency; many fits are weak.

The test in a line: qHTS Assay to Find Inhibitors of Chronic Active B-Cell Receptor Signaling. The settings on record: ABC-DLBCL IkBa-CBG/CBR reporter, luminescence ratio (green luciferase fused to IkBa over red control in TMD8 lymphoma cells), 4 h. The method, boiled down: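 Cell line TMD8 (human ABC DLBCL), stably expressing tet-inducible CBG68-IkBa fusion and CBR; IMDM/0.5% FBS; cpd up to 46 uM; dox induction, 4 h, 37C/5% CO2; dual luminescence; green/red ratio; MG132 control.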
(In qHTS, concentration-response curves come from the screen itself.)

The mark [1] stands for this setting: measured here: CBR red luminescence, cell number.
Setting [2] is: measured here: IkBa-CBG green luminescence.

One may read the AC50 as the midpoint of the concentration-response curve, whichever way the signal moves.

As to `Cc1ccc(-n2nc(C)c3c2OC(N)=C(C#N)C3c2ccco2)cc1` (configuration not stated), the half-maximal activity concentration (AC50) under setting [1] was 35.5 µM [falling, single point]. On to `Cc1nc(NC(=O)/C=C/c2ccccc2)sc1C(=O)Nc1ccc(Cl)cc1`, for which the AC50 under setting [1] is 35.5 µM [falling, single point]. Turning to `CCCSC1=C(C#N)C(c2cccs2)C(C(=O)Nc2ccccc2)=C(C)N1` (configuration not stated), the AC50 under setting [1] was 10.3 µM [falling, partial curve] and the AC50 under setting [2] is 6.51 µM [rising, full curve, poor fit]. For `N#CC1=C(SCc2ccccc2)NC(=O)CC1c1ccco1` (configuration not stated), the half-maximal activity concentration (AC50) under setting [1] is 25.1 µM [falling, single point].

On to `Cc1cc(C(=O)COC(=O)c2ccc(F)cc2F)c(C)n1C1CC1`, for which, under setting [1], the concentration at half-maximal activity (AC50) is 3.26 µM [rising, single point]. Regarding `CCC(CC)c1nnc(NC(=O)CCS(=O)(=O)Cc2ccccc2)s1`, the concentration at half-maximal activity (AC50) under setting [1] was 5.01 µM [falling, full curve]. On the same count and under the same terms, the result for `COC(=O)N(C)c1nc2ccccc2s1` reads 0.794 µM [rising, full curve, poor fit]; that for `COC(=O)c1c(NC(=O)/C=C/c2ccc3c(c2)OCO3)sc(C)c1C`, 0.731 µM [falling, partial curve, poor fit]; that for `CSC1=NC(C)(C)C=C(/C=C/c2c(Cl)cccc2Cl)N1`, 10 µM [falling, partial curve]. On the same count and under the same terms, the result for `Cc1ccc(CN2C(=O)CCC2C(=O)NCCN(CC(C)C)CC(C)C)cc1` (configuration not stated) reads 18.4 µM [falling, single point]; that for `CCc1sc(C(=O)NCCc2ccc(S(N)(=O)=O)cc2)cc1Br`, 5.01 µM [rising, full curve, poor fit]. Same read-out and setting: then `Cc1cccc(N2CCN(C(=O)COCc3cc(-c4ccc5c(c4)OCO5)on3)CC2)c1C`, with 35.5 µM [falling, single point]; and `O=C(N/N=C1/CCS(=O)(=O)c2ccc(F)cc21)c1cccnc1`, with 0.1 µM [falling, full curve, poor fit]; and `COC(=O)CCC(=O)OC1(C)C(=O)C=C2C=C(C3CC3)N(C3CCCCC3)C=C2C1=O` (configuration not stated), with 20 µM [rising, partial curve, poor fit]. For `CCC1(C)Cc2c(C#N)c(N)sc(=S)c2CO1` (configuration not stated), the AC50 under setting [1] was 20 µM [rising, single point]. In the case of `O=c1ccn(Cc2ccccc2)cc1`, the AC50 under setting [1] is 35.5 µM [rising, single point].

`Cn1ccnc1SCC(=O)Nc1ccc2ccccc2c1`: under setting [1], the half-maximal activity concentration (AC50) was 8.2 µM [falling, partial curve, poor fit]. Still for that read-out and setting: then `C=CCOc1ccc(/C=C/C(=O)OCC(=O)NCc2cccs2)cc1`, with 14.6 µM [rising, partial curve].

Turning to `COc1cccc(/C=C/C(=O)c2ccc3c(c2)OCO3)c1OC`, the half-maximal activity concentration (AC50) under setting [1] is 18.4 µM [falling, single point].

For `O=C(NCC(c1cccs1)N1CCOCC1)c1cnc(Cl)c(Cl)c1` (configuration not stated), under setting [1], the AC50 is 16.4 µM [falling, single point]. On the same count and under the same terms, then `O=C(CSc1nnc2ccccn12)Nc1ncc(Cl)cc1Cl`, with 0.164 µM [rising, full curve, poor fit]; and `CC1=CCC(C(=O)O)C(C(=O)NC2CCCCC2)C1` (configuration not stated), with 14.1 µM [falling, partial curve, poor fit]; and `O=C(NCc1ccccc1)Nc1cc(Cl)ccc1Cl`, with 0.316 µM [rising, full curve, poor fit]. Take `COc1cc(/C=C/c2nc3ccccc3s2)cc(OC)c1O`: under setting [1], the concentration at half-maximal activity (AC50) was 15.8 µM [falling, single point].

With `CC(OC(=O)CCOc1ccccc1)C(=O)Nc1ccc(Cl)cn1` (configuration not stated), the AC50 under setting [1] was 14.1 µM [falling, single point]. Still for that read-out and setting: the result for `CCOC(=O)CC1COCCN1Cc1cn[nH]c1-c1cc(OC)c(OC)c(OC)c1` (configuration not stated) reads 7.08 µM [rising, partial curve, poor fit]; that for `N#Cc1ccsc1NC(=O)COC(=O)C1=NNC(=O)CC1`, 18.4 µM [rising, single point]; that for `COc1ccc(Cn2c(-c3ccc(Br)cc3)c[n+]3ccccc23)cc1`, 2.59 µM [rising, partial curve]. On the same count and under the same terms, the result for `O=C(NC(=S)NCCc1ccccc1)c1ccccc1` reads 35.5 µM [falling, single point]; that for `CC(C)CCCCCCNC(=S)Nc1ccc(S(=O)(=O)N2CCOCC2)cc1`, 18.4 µM [falling, partial curve, poor fit].

For `CCn1cc(C(=O)NCCc2ccc(OC)c(OC)c2)c(=O)c2cc(S(=O)(=O)N3CCOCC3)ccc21`, under setting [1], the AC50 is 17.8 µM [rising, partial curve, poor fit]. The same measure, in the same setting: the result for `N#C/C(=C\C=C\c1ccccc1)C(=O)N1CCCC1` reads 10 µM [falling, partial curve]. In the case of `Cc1ccc(-c2cn3cc(C)ccc3n2)cc1`, the concentration at half-maximal activity (AC50) under setting [1] was 7.94 µM [falling, partial curve, poor fit]. Still for that read-out and setting: the result for `O=S(=O)(c1cccc(NC(=S)N2CCN(c3cccc(Cl)c3)CC2)c1)C(F)F` reads 18.4 µM [falling, single point]; that for `Cc1cccc(-n2nnc(-c3nc(-c4ccccc4)no3)c2N)c1C`, 12.6 µM [falling, single point]. Still for that read-out and setting: the result for `O=C(CSc1ccccc1)Nc1cccnc1` reads 32.6 µM [falling, single point]; that for `COC(=O)Cc1csc(N)n1`, 0.731 µM [rising, full curve, poor fit]. For `CN(C)c1ccc(/C=C/c2ccncc2)cc1`, under setting [1], the AC50 was 0.651 µM [rising, full curve, poor fit].

For the compound `CCCCn1c(N)c(N(CC(C)C)C(=O)c2cccc(S(=O)(=O)N3CC(C)OC(C)C3)c2)c(=O)[nH]c1=O` (configuration not stated), under setting [1], the concentration at half-maximal activity (AC50) was 7.31 µM [rising, partial curve, poor fit]. Same read-out and setting: the result for `COc1ccc(C2/C=C\CN(S(=O)(=O)c3ccc4ccccc4c3)CC(=O)N2Cc2ccc(F)cc2)cc1` (configuration not stated) reads 11.2 µM [rising, partial curve, poor fit]. On the same count and under the same terms, then `O=C(C(c1ccccc1)c1ccccc1)N1CC[C@@]2(O)CCCC[C@H]2C1`, with 6.31 µM [rising, single point].

Turning to `O=C(Nc1cccc(Cl)c1)Nc1cc(S(=O)(=O)N2CCCCC2)ccc1Cl`, the half-maximal activity concentration (AC50) under setting [1] is 32.6 µM [falling, single point]. Still for that read-out and setting: the result for `O=C(O)c1cccc(CN2C(=O)S/C(=C/c3cccc([N+](=O)[O-])c3)C2=O)c1` reads 5.62 µM [falling, full curve]; that for `CC(C)NCC1CCc2cc(CO)c([N+](=O)[O-])cc2N1` (configuration not stated), 0.112 µM [falling, full curve, poor fit]; that for `CCN(Cc1ccncc1)Cc1cn(C)nc1-c1ccc(Oc2ccccc2)cc1`, 0.794 µM [rising, full curve, poor fit]. As for `COc1cc(C(=O)Nc2scc(-c3ccc(C)cc3)c2C(=O)O)cc(OC)c1OC`, the concentration at half-maximal activity (AC50) by setting is: under setting [1], 2.82 µM [falling, full curve]; under setting [2], 3.16 µM [rising, full curve, poor fit]. For `CC(OC(=O)c1cc(=O)[nH]c2ccccc12)C(=O)c1ccccc1` (configuration not stated), under setting [1], the concentration at half-maximal activity (AC50) is 20 µM [rising, single point].

Take `COC(=O)C1=C(C)N(CCc2ccc(OC)cc2)C(=O)C1`: the concentration at half-maximal activity (AC50) under setting [1] was 8.91 µM [falling, partial curve]. On the same count and under the same terms, then `COc1cc2cc(CN(C(=O)NC3CCCCC3)C3CCCC3)c(=O)[nH]c2cc1OC`, with 0.562 µM [rising, partial curve, poor fit]. The same measure, in the same setting: the result for `COc1cccc(-c2csc(N3CCN(C(=S)Nc4cccc(Cl)c4)CC3)n2)c1` reads 6.31 µM [rising, single point]; that for `O=C(COc1ccc(F)cc1)N1CCc2ccccc2C1`, 8.91 µM [falling, partial curve, poor fit]. On the same count and under the same terms, then `C(=C\c1ccccc1)/CSc1nnc(-c2cccnc2)o1`, with 5.62 µM [falling, single point]; and `C[C@@H](CN1C(=O)C(=O)NC[C@@H]1Cc1ccc(O)cc1)NC(=O)Cc1ccccc1`, with 20 µM [falling, partial curve, poor fit]. `Cc1occc1-c1nnc(SC(C)C(=O)Nc2ccccc2F)o1` (configuration not stated): the AC50 under setting [1] was 10.3 µM [falling, partial curve, poor fit]. Still for that read-out and setting: then `CN(C)CCCN(C(=O)c1cc2ccccc2oc1=O)c1nc2ccc(F)cc2s1`, with 16.4 µM [falling, single point]. The same measure, in the same setting: the result for `CC(/C=N/n1c(-c2n[nH]c3c2CCC3)n[nH]c1=S)=C\c1ccco1` reads 0.1 µM [falling, full curve, poor fit]; that for `Clc1cc(Cl)c2nc(N3CCOCC3)sc2c1`, 23.1 µM [rising, partial curve]; that for `Cc1ccc2sc(-c3ccc(NC(=O)/C=C\C(=O)O)cc3)nc2c1`, 35.5 µM [falling, single point]. Same read-out and setting: the result for `N/C(=N\OC(=O)c1cccc2ccccc12)c1cccnc1` reads 0.2 µM [rising, full curve, poor fit]; that for `CCCCNC(=O)c1cc(-c2ccc(OC)c(OC)c2)on1`, 1.12 µM [rising, full curve, poor fit]; that for `COC(=O)c1cc(NC(=S)NC(=O)c2ccccc2)ccc1N1CCOCC1`, 3.16 µM [falling, full curve]. Regarding `Cc1ccc2c(c1)[C@H]1[C@H](CO2)[C@H](c2ccccc2)[C@]2(C)C(=O)Nc3ccc(Br)cc3C(=O)N12`, the AC50 under setting [1] was 3.66 µM [falling, full curve]. As for `COc1cccc(NCc2cc(=O)oc3cc(C)c(C(C)C)cc23)c1`, the half-maximal activity concentration (AC50) under setting [2] was 31.6 µM [falling, single point].

For the compound `Cc1cc(C)nc(/N=C2\NC(=O)CC3C(=O)NCCN23)n1` (configuration not stated), the AC50 under setting [1] is 3.66 µM [rising, full curve, poor fit].

Take `CC1CCN(c2nc(-c3cccnc3)nc3scc(-c4ccccc4)c23)CC1`: the concentration at half-maximal activity (AC50) under setting [1] was 25.9 µM [rising, single point].
